Reference: the supplement of paper PMC10849652
The list shows a part of the results.

Sequences of proteins named here, by UniProt entry; tags and fusion partners are left off. A change or cut given only in a name is not applied to a line headed by its entry.
UniProt Q96S55: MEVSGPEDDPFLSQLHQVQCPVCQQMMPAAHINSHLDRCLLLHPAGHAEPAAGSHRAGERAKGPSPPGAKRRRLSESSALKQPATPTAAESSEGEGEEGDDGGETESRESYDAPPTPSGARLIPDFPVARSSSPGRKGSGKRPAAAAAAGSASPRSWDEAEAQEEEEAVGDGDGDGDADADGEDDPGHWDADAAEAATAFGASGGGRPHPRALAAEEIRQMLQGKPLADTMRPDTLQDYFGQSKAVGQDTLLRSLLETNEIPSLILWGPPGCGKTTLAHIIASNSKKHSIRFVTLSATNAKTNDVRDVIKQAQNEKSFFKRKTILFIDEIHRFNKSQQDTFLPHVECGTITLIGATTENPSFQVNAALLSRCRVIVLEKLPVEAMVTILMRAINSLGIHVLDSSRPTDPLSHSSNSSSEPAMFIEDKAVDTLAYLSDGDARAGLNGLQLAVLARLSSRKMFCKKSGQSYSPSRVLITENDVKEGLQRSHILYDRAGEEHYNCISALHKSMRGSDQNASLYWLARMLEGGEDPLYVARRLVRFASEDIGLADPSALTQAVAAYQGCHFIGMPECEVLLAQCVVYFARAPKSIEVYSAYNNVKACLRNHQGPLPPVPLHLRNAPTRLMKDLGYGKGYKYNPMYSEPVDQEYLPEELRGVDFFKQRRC
UniProt Q9Y277: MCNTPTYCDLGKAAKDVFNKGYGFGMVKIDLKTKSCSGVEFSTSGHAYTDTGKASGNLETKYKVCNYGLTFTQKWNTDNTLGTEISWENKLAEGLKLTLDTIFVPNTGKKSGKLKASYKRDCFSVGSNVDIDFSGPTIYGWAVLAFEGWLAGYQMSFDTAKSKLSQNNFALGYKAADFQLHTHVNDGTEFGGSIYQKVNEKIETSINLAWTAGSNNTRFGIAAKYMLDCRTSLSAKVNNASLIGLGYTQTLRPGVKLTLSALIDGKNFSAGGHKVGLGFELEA
UniProt Q8TF74: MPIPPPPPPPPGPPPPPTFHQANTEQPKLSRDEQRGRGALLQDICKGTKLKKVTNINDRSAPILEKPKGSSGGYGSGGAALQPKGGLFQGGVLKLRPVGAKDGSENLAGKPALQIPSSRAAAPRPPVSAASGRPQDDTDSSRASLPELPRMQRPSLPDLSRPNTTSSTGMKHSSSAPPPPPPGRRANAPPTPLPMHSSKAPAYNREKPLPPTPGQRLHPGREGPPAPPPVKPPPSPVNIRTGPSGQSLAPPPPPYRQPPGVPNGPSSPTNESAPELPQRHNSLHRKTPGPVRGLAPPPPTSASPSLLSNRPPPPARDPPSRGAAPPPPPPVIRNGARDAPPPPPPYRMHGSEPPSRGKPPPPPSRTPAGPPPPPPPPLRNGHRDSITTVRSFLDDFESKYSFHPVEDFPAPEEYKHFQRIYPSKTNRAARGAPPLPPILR
UniProt A6NGB9: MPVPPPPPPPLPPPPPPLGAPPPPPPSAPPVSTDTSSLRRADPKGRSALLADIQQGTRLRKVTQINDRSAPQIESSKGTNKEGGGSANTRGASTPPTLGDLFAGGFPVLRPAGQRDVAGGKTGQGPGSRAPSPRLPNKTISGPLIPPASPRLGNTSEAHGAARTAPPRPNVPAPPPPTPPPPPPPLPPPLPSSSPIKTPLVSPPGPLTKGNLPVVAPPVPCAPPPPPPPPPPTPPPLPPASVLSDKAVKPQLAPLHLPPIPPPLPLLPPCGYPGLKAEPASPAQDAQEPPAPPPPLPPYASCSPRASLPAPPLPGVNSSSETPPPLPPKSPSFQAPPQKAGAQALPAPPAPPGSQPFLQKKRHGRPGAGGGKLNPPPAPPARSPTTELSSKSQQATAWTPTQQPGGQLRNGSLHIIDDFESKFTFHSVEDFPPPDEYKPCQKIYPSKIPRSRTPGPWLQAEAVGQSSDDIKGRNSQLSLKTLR
UniProt Q6PJI9: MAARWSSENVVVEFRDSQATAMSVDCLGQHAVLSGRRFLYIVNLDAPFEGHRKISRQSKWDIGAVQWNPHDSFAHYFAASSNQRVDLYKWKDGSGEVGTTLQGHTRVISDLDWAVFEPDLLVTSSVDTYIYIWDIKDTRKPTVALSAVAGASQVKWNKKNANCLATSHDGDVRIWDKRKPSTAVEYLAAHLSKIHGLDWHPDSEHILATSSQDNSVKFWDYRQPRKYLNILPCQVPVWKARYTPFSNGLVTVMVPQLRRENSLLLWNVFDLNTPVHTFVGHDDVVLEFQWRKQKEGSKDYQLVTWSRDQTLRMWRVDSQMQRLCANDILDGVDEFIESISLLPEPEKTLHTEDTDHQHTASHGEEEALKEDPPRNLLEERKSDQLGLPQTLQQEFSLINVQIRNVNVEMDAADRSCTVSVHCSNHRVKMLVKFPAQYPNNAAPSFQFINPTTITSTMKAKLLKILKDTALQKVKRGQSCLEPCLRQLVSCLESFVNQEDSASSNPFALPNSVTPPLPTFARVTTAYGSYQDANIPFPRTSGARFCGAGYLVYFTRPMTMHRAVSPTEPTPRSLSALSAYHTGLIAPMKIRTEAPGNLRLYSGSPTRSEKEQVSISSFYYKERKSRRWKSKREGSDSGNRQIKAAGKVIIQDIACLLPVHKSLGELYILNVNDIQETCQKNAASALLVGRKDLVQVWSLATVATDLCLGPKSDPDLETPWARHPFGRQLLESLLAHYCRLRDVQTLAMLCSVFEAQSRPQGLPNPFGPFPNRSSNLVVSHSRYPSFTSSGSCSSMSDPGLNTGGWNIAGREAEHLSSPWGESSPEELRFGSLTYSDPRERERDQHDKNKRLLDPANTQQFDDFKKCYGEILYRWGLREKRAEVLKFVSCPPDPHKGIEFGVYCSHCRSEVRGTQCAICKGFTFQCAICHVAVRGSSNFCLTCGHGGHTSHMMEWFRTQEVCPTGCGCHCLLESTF
UniProt Q9NRW7: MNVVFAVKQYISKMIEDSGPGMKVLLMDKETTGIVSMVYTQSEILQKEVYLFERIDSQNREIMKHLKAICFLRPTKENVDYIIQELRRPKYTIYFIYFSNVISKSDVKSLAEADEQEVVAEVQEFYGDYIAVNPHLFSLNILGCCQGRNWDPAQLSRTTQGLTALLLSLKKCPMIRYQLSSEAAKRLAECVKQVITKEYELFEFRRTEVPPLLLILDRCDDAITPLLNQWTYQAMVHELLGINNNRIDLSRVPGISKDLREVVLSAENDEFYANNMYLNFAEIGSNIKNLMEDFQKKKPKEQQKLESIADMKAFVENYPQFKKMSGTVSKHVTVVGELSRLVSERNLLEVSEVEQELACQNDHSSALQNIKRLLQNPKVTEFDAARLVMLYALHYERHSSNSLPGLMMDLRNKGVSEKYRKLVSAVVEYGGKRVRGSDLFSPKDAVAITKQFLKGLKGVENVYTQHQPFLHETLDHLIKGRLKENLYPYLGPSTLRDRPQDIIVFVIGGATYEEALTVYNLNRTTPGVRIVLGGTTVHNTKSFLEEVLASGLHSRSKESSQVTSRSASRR
UniProt Q9BRG1: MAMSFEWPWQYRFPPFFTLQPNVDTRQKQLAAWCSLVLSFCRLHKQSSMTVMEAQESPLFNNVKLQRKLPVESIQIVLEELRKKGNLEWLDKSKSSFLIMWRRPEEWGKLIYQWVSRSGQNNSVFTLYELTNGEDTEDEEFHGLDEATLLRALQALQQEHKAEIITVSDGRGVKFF
UniProt Q5MNZ6: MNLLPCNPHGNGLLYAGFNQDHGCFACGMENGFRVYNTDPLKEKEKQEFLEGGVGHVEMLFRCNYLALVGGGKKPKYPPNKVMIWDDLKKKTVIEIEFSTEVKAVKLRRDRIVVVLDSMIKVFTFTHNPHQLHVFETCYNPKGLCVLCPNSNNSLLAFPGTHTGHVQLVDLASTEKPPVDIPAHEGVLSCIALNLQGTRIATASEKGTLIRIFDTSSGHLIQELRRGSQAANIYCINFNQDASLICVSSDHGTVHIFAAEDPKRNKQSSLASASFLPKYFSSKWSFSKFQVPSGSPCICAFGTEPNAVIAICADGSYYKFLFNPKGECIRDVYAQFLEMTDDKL
UniProt Q9H9C1: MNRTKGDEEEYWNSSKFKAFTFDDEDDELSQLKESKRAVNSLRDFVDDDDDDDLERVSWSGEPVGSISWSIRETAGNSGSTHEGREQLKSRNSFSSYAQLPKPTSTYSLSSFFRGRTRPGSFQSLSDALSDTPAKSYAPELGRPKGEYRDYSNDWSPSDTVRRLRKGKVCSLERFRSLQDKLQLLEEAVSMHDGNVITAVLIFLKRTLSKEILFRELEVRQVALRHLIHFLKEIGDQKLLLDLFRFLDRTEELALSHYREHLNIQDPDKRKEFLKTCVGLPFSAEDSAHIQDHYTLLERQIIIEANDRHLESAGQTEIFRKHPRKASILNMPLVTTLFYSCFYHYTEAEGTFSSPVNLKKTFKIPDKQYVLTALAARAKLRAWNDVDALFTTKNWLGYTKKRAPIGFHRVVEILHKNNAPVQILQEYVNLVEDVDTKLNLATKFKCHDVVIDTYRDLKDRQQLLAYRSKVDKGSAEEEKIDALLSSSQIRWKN
UniProt Q7Z5U6: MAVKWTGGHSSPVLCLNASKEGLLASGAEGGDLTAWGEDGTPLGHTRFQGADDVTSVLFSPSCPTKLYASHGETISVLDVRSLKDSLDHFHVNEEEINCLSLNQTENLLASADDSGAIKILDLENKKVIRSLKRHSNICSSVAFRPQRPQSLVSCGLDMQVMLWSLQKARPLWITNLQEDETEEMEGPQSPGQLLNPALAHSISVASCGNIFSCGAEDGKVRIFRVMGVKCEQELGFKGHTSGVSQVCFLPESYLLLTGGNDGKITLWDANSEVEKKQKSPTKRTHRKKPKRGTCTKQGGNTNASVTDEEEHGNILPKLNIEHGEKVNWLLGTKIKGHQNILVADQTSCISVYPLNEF
UniProt Q4G0F5, whole entry, looked up: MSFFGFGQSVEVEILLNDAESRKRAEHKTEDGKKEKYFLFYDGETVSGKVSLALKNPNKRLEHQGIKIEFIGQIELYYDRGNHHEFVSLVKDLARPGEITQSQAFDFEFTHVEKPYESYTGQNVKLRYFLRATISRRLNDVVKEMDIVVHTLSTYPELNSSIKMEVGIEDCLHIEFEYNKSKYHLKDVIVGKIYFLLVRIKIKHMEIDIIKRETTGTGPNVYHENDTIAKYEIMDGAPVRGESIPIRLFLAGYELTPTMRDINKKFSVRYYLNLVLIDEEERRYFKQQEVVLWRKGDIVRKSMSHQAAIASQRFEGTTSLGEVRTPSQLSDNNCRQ
UniProt Q9HBM0: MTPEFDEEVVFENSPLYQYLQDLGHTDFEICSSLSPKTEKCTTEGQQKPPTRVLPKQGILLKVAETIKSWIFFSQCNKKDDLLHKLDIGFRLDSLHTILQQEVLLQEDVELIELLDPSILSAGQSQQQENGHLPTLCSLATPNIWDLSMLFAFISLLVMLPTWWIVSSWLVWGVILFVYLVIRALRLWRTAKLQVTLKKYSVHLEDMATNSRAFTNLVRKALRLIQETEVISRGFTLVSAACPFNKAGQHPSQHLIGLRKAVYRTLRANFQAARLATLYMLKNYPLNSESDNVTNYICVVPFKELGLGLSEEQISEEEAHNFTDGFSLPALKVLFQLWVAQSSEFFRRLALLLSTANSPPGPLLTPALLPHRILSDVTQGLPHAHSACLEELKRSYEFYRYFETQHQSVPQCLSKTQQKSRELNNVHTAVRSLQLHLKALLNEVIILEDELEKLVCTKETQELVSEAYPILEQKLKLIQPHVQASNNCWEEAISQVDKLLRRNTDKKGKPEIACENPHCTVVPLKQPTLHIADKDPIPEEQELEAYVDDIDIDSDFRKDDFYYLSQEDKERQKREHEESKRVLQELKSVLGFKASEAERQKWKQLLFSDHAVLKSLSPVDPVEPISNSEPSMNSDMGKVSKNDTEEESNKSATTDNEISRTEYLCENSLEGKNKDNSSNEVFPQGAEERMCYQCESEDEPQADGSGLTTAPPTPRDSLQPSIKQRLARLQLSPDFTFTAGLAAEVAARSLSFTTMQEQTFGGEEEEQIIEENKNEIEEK
UniProt Q9BUR4: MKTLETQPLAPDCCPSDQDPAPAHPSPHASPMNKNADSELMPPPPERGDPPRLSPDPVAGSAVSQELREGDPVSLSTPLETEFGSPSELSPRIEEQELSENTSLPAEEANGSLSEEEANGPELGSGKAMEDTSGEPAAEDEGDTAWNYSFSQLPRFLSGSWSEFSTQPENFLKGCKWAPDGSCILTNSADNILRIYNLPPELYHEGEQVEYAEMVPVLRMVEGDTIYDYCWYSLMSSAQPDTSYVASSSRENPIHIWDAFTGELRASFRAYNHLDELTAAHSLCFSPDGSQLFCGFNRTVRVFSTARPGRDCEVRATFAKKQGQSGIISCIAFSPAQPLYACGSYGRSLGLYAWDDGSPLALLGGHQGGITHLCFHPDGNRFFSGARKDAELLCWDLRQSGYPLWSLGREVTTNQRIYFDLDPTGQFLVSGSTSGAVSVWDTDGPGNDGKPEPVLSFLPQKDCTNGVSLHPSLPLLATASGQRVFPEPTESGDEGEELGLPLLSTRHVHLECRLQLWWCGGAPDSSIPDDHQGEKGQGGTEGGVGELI

What was measured:
Test in all cases: log2 fold change, soluble protein after heating vs DMSO (PISA); higher = thermal stabilisation; K562 cells, 10 uM, 30 min; active = over 0.2 and 3.5 SD of the protein, either way, in both replicates (recomputed)
[1] = compound: CN1CCN(CCOc2cc(OC3CCOCC3)c3c(Nc4c(Cl)ccc5c4OCO5)ncnc3c2)CC1 [saracatinib]
How it was run: (§1)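 For each measurement, 10 μM compound was applied for 30 min to K562 cells at 2×10^6 cells/mL. Aliquots were heated for 3 min across 48°C-58°C, pooled, and extracted in PBS with 0.5% NP-40 at 4°C; the supernatant after 21,000xg for 90 min was soluble protein. This was quantified by TMTpro 16plex LC-MS/MS with channel sums equalised, and thermal stability was reported relative to control samples from duplicates, on a log2 fold-change scale.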

[2] = compound: CN1CCN(c2nc(C3=C(c4c[nH]c5ccccc45)C(=O)NC3=O)c3ccccc3n2)CC1 [sotrastaurin]
How it was run: as §1

[3] = compound: CN1CC[C@H](c2c(O)cc(O)c3c(=O)cc(-c4ccccc4Cl)oc23)[C@H](O)C1 [alvocidib]
How it was run: as §1

[4] = compound: CN1CCc2c(c3ccccc3n2Cc2ccc(C(=O)NO)cc2)C1 [Tubastatin A]
How it was run: as §1

[5] = compound: CNC(=O)C1=CC=CC=C1NC2=NC(=NC=C2Cl)NC3=C(C=C(C=C3)N4CCOCC4)OC
How it was run: as §1

[6] = compound: CNC(=O)c1ccc(Nc2ncc(C(F)(F)F)c(NCc3nccnc3N(C)S(C)(=O)=O)n2)cc1 [defactinib]
How it was run: as §1

[7] = compound: CNCc1ccc(-c2[nH]c3cc(F)cc4c3c2CCNC4=O)cc1 [rucaparib]
How it was run: as §1

[8] = compound: CNc1nc(-c2ccc3c(N)n[nH]c3c2)cc(N2C[C@@H](C(=O)NC3CCCCC3)CC[C@H]2C)n1
How it was run: as §1

[9] = compound: COC(=O)N[C@@H](C)CNc1nccc(-c2cn(C(C)C)nc2-c2cc(Cl)cc(NS(C)(=O)=O)c2F)n1 [encorafenib]
How it was run: as §1

[10] = compound: COC(=O)[C@H](CCSC)NC(=O)C1=C(C=C(C=C1)NC[C@H](CS)N)C2=CC=CC=C2
How it was run: as §1

[11] = compound: COC1=CC=C(C=C1)CN2C=CC3=C2C=C(C=C3)C(=O)NO
How it was run: as §1

[12] = compound: CON(C)C(=O)N1N=C(c2cc(F)ccc2F)S[C@@]1(CCCN)c1ccccc1 [filanesib]
How it was run: as §1

[13] = compound: CO[C@H]1C[C@@H]2CC[C@@H](C)[C@@](O)(O2)C(=O)C(=O)N2CCCC[C@H]2C(=O)O[C@H]([C@H](C)C[C@@H]2CC[C@H](n3cnnn3)[C@H](OC)C2)CC(=O)[C@H](C)/C=C(\C)[C@@H](O)[C@@H](OC)C(=O)[C@H](C)C[C@H](C)/C=C/C=C/C=C/1C [zotarolimus]
How it was run: as §1

[14] = compound: COc1cc(C(=O)O)ccc1NC(=O)[C@@H]1N[C@@H](CC(C)(C)C)[C@](C#N)(c2ccc(Cl)cc2F)[C@H]1c1cccc(Cl)c1F [idasanutlin]
How it was run: as §1

[15] = compound: COc1cc(Nc2ncc3c(n2)-c2ccc(Cl)cc2C(c2c(F)cccc2OC)=NC3)ccc1C(=O)O [alisertib]
How it was run: as §1

[16] = compound: COc1cc2nc(-c3cc(F)ccc3O)nc(N[C@@H]3CNC[C@H]3C(C)(C)O)c2cc1OC
How it was run: as §1

[17] = compound: COc1cc2ncnc(Nc3ccc(F)c(Cl)c3)c2cc1OCCCN1CCOCC1 [gefitinib]
How it was run: as §1

[18] = compound: COc1cccc2cc(-c3nc([C@H]4CC[C@H](C(=O)O)CC4)n4ncnc(N)c34)[nH]c12
How it was run: as §1

[19] = compound: CS(=O)(=O)CCNCc1ccc(-c2ccc3ncnc(Nc4ccc(OCc5cccc(F)c5)c(Cl)c4)c3c2)o1 [lapatinib]
How it was run: as §1

[20] = compound: CS(=O)(=O)N1CCN(Cc2cc3nc(-c4cccc5[nH]ncc45)nc(N4CCOCC4)c3s2)CC1 [pictilisib]
How it was run: as §1

Measured: log2 fold change

WRNIP1 (UniProt Q96S55)
inactive: [1] -0.09 | [2] -0.197 | [3] -0.183 | [4] 0.107 | [5] -0.133 | [6] -0.188 | [7] -0.03 | [8] -0.007 | [9] 0.158 | [10] -0.057 | [11] 0.01 | [12] -0.137 | [13] -0.002 | [14] -0.056 | [15] 0.078 | [16] 0.007 | [17] -0.1 | [18] 0.086 | [19] -0.02 | [20] 0

VDAC3 (UniProt Q9Y277)
inactive: [1] 0.03 | [2] 0.069 | [3] 0 | [4] -0.028 | [5] 0.001 | [6] -0.007 | [7] -0.002 | [8] -0.037 | [9] -0.025 | [10] -0.037 | [11] -0.042 | [12] -0.041 | [13] -0.024 | [14] -0.066 | [15] -0.005 | [16] 0.011 | [17] 0.003 | [18] 0.056 | [19] -0.022 | [20] 0.015

WIPF2 (UniProt Q8TF74)
inactive: [1] 0.096 | [2] 0.046 | [3] 0.036 | [4] 0.042 | [5] -0.015 | [6] 0.008 | [7] -0.044 | [8] 0.01 | [9] -0.09 | [10] 0.014 | [11] 0.037 | [12] -0.023 | [13] -0.05 | [14] 0.055 | [15] -0.007 | [16] 0.053 | [17] 0.029 | [18] 0.005 | [19] 0.04 | [20] 0.012

WDR5 (UniProt P61964)
inactive: [1] 0.047 | [2] -0.011 | [3] 0.102 | [4] 0.019 | [5] 0.022 | [6] 0.078 | [7] 0.147 | [8] -0.004 | [9] 0.066 | [10] 0.017 | [11] -0.004 | [12] 0.199 | [13] -0.067 | [14] 0.126 | [15] -0.069 | [16] -0.018 | [17] -0.063 | [18] -0.108 | [19] 0.003 | [20] -0.036

WIPF3 (UniProt A6NGB9)
inactive: [1] 0.101 | [2] -0.002 | [3] -0.03 | [4] 0.016 | [5] -0.126 | [6] 0.029 | [7] -0.007 | [8] 0 | [9] -0.012 | [10] 0.032 | [11] 0.015 | [12] 0.009 | [13] -0.042 | [14] 0.022 | [15] 0.075 | [16] -0.025 | [17] -0.018 | [18] 0.055 | [19] -0.036 | [20] -0.193

Copied from the entries so far (2 entries):
WIPF2 (UniProt Q8TF74)
inactive: [1] 0.096 | [2] 0.046 | [3] 0.036 | [4] 0.042 | [5] -0.015 | [6] 0.008 | [7] -0.044 | [8] 0.01 | [9] -0.09 | [10] 0.014 | [11] 0.037 | [12] -0.023 | [13] -0.05 | [14] 0.055 | [15] -0.007 | [16] 0.053 | [17] 0.029 | [18] 0.005 | [19] 0.04 | [20] 0.012

WDR5 (UniProt P61964)
inactive: [1] 0.047 | [2] -0.011 | [3] 0.102 | [4] 0.019 | [5] 0.022 | [6] 0.078 | [7] 0.147 | [8] -0.004 | [9] 0.066 | [10] 0.017 | [11] -0.004 | [12] 0.199 | [13] -0.067 | [14] 0.126 | [15] -0.069 | [16] -0.018 | [17] -0.063 | [18] -0.108 | [19] 0.003 | [20] -0.036

(continued)

WDR59 (UniProt Q6PJI9)
inactive: [1] 0.084 | [2] -0.127 | [3] 0.019 | [4] 0.043 | [5] -0.011 | [6] 0.13 | [7] 0.1 | [8] 0.008 | [9] 0.085 | [10] -0.091 | [11] -0.092 | [12] 0.013 | [13] -0.15 | [14] 0.015 | [15] -0.207 | [16] 0.081 | [17] 0.026 | [18] 0.064 | [19] -0.031 | [20] 0.056

VPS45 (UniProt Q9NRW7)
inactive: [1] -0.058 | [2] -0.001 | [3] -0.082 | [4] 0.045 | [5] -0.003 | [6] -0.049 | [7] 0.095 | [8] 0.125 | [9] 0.062 | [10] -0.004 | [11] -0.002 | [12] 0.092 | [13] 0.006 | [14] -0.067 | [15] -0.049 | [16] 0.157 | [17] 0.048 | [18] -0.067 | [19] 0.019 | [20] 0.146

VPS25 (UniProt Q9BRG1)
inactive: [1] -0.045 | [2] 0.002 | [3] -0.033 | [4] 0.008 | [5] -0.017 | [6] 0 | [7] 0.014 | [8] -0.005 | [9] -0.007 | [10] -0.039 | [11] -0.008 | [12] -0.049 | [13] 0.051 | [14] -0.04 | [15] -0.029 | [16] 0.013 | [17] 0.015 | [18] 0.045 | [19] 0.004 | [20] 0.045

WDR45B (UniProt Q5MNZ6)
inactive: [1] 0.067 | [2] -0.076 | [3] -0.014 | [4] -0.044 | [5] -0.033 | [6] -0.03 | [7] -0.09 | [8] 0.06 | [9] 0.048 | [10] -0.054 | [11] -0.074 | [12] 0 | [13] -0.064 | [14] -0.029 | [15] 0.011 | [16] 0.081 | [17] 0.025 | [18] 0 | [19] -0.057 | [20] -0.142

VIPAS39 (UniProt Q9H9C1)
inactive: [1] -0.231 | [2] -0.022 | [3] -0.233 | [4] 0.009 | [5] -0.204 | [6] -0.119 | [8] 0.176 | [10] -0.18 | [12] 0.194 | [13] -0.296 | [14] -0.281 | [15] 0.161 | [16] -0.178 | [17] 0.084 | [18] -0.349 | [19] 0.061

WDR12 (UniProt Q9GZL7)
inactive: [1] 0.051 | [2] 0.006 | [3] -0.045 | [4] -0.007 | [5] -0.029 | [6] -0.021 | [7] -0.05 | [8] -0.021 | [9] 0.013 | [10] 0.022 | [11] 0.045 | [12] -0.008 | [13] -0.005 | [14] -0.008 | [15] 0.02 | [16] 0.038 | [17] 0 | [18] 0.012 | [19] -0.017 | [20] 0.094

WDR53 (UniProt Q7Z5U6)
inactive: [1] 0.023 | [2] -0.177 | [3] 0.06 | [4] 0.01 | [5] -0.055 | [6] 0.012 | [7] 0.016 | [8] -0.056 | [9] -0.044 | [10] -0.085 | [11] 0.027 | [12] -0.171 | [13] -0.069 | [14] 0.023 | [15] -0.128 | [16] 0.026 | [18] 0.133 | [19] 0.041 | [20] -0.049

VPS26B (UniProt Q4G0F5)
inactive: [1] 0.032 | [2] 0.014 | [3] -0.041 | [4] -0.008 | [5] -0.021 | [6] 0 | [7] -0.004 | [8] 0.004 | [9] 0.026 | [10] 0.029 | [11] -0.012 | [12] -0.11 | [13] -0.023 | [14] -0.061 | [15] -0.088 | [16] -0.013 | [17] -0.011 | [18] 0.049 | [19] 0.016 | [20] -0.027

VEZT (UniProt Q9HBM0)
inactive: [1] -0.035 | [2] 0.071 | [3] 0.12 | [4] 0.074 | [5] -0.044 | [6] -0.083 | [8] 0.055 | [10] -0.08 | [11] -0.049 | [12] -0.055 | [13] 0.02 | [14] -0.038 | [15] -0.045 | [16] -0.051 | [17] -0.09 | [18] 0.051 | [19] 0.161 | [20] -0.02

WIZ isoform 3 (UniProt O95785)
inactive: [1] -0.047 | [2] -0.015 | [3] -0.014 | [4] 0.226 | [5] -0.089 | [6] 0.046 | [7] 0.036 | [8] 0.036 | [9] 0.098 | [10] 0.034 | [11] 0.036 | [12] -0.029 | [13] 0.134 | [14] -0.126 | [15] -0.023 | [16] 0.11 | [17] 0.008 | [18] -0.001 | [19] 0.055 | [20] 0.069

WRAP53 (UniProt Q9BUR4)
inactive: [1] 0.011 | [2] 0.019 | [3] 0.05 | [4] -0.002 | [5] -0.019 | [6] 0.154 | [7] 0.08 | [8] 0.035 | [9] 0.034 | [10] -0.01 | [11] 0.013 | [12] 0.012 | [13] -0.005 | [14] -0.123 | [15] -0.053 | [16] 0.051 | [17] -0.013 | [18] 0.26 | [19] -0.045 | [20] 0.075
